Data published in publication PMC8938449.

Experiments:
[1] = molecular target: Flag-Par-1 (Bombyx); assay: co-IP; Flag-Par-1 in BmN4 cytoplasmic lysates without mitochondrial materials; blot for Siwi; Flag-LacZ as negative control
[2] = molecular target: Flag-Par-1 (Bombyx); assay: co-IP; immunoprecipitation and western blotting of WT Siwi or the Siwi 9RK mutant with Par-1 (Fig. 3f); bait and tags not stated

B1: Siwi, endogenous (protein, UniProt A8D8P8 1-899)
chain: MSEPRGRGRARGRAGRGGDGGGPAPRRPGEQAGPSQQSMPPGPRPQPPSGWGPQSSVPPVRAGVPTPTAQAGRASHRVTPTTHEHPGDIDVQQRMQKLELGPHSSGGGDASSVVGRGSRRGGGRVLPETISILRTRPEAVTSKKGTSGTPLDLLANYFTVETTPKWGLYQYHVDISPEEDSTGVRKALMRVHSKTLGGYLFDGTVLYTVNRLHPDPMELYSDRKTDNERMRILIKLTCEVSPGDYHYIQIFNIIIRKCFNLLKLQLMGRDYFDPEAKIDIPEFKLQIWPGYKTTINQYEDRLLLVTEIAHKVLRMDTVLQMLSEYAATKGNNYKKIFLEDVVGKIVMTDYNKRTYRVDDVAWNVSPKSTFKMRDENITYIEYYYKKYNLRIQDPGQPLLISRSKPREIRAGLPELIYLVPELCRQTGLSDEMRANFKLMRSLDVHTKIGPDKRIEKLNNFNRRFTSTPEVVEELATWSLKLSKELVKIKGRQLPPENIIQANNVKYPAGDTTEGWTRDMRSKHLLAIAQLNSWVVITPERQRRDTESFIDLIIKTGGGVGFRMRSPDLVVIRHDGPIEYANMCEEVIARKNPALILCVLARNYADRYEAIKKKCTVDRAVPTQVVCARNMSSKSAMSIATKVAIQINCKLGGSPWTVDIPLPSLMVVGYDVCHDTRSKEKSFGAFVATLDKQMTQYYSIVNAHTSGEELSSHMGFNIASAVKKFREKNGTYPARIFIYRDGVGDGQIPYVHSHEVAEIKKKLAEIYAGVEIKLAFIIVSKRINTRIFVQRGRSGENPRPGTVIDDVVTLPERYDFYLVSQNVREGTIAPTSYNVIEDTTGLNPDRIQRLTYKLTHLYFNCSSQVRVPSVCQYAHKLAFLAANSLHNQPHYSLNETLYFL
- binding [1]: binds

B2: WT Siwi, expressed in BmN4 cells (protein, UniProt A8D8P8 1-899)
chain: B1 chain
- binding [2]: binds

No constants are given. Whether binding was seen depends on the method and setting. Binding seen in cells or lysates may run through a third protein. A result given as binding can be weak or reduced; the word gives no strength.
